Patent US20190083420A1, “METHODS OF USING (2R, 6R)-HYDROXYN[…] (2S, 6S)-HYDROXYN[…] THE TREATMENT OF DEPRESSION, ANXIETY, ANHEDONIA, FATIGUE, SUICIDAL IDEATION, AND POST TRAUMATIC STRESS DISORDERS” (The Uinited States of America, as represented by the …, priority 2016, published 2019)
Some entries share one result that the patent states for a list of compounds.

System: male CD-1 mice
Assay: Forced-swim test (FST)
Assay type: in vivo
Excerpt: Male CD-1 mice (8-10 weeks old, Charles River Laboratories, Mass., USA) were housed in groups of four-five per cage with a constant 12-hour light/dark cycle (lights on/off at 07:00/19:00). Food and water were available ad libitum. Mice acclimatized to the new environment for seven days prior to the start of the experiments. For the whole-cell NMDA current electrophysiological recordings, male Sprague-Dawley rats (housed three per cage; Charles River, Wilmington, Mass.) were used. EPSC recording were done from rats at postnatal day 24-25. All experimental procedures were approved by the University of Maryland, Baltimore Animal Care and Use Committee and were conducted in full accordance with the National Institutes of Health Guide for the Care and Use of Laboratory Animals.
Mice were tested in the FST 1 hour and/or 24 hours post-injection. During the FST, mice were subjected to a 6-min swim session in clear Plexiglass cylinders (30 cm height×20 cm diameter) filled with 15 cm of water (23±1° C.). The FST was performed in normal light conditions (800 Lux). Sessions were recorded using a digital video-camera. Immobility time, defined as passive floating with no additional activity other than that necessary to keep the animal's head above water, was scored for the last 4 min of the 6-min test by a trained observer blind to the treatment. […]

CNC1(c2ccccc2Cl)CCCCC1=O (racemic) [ketamine, (R,S)-ketamine, reference compound]
persistence of antidepressant-like effects in the FST after a single administration: at least 3 days
